Source: patent US9849489B2, “Passive sampling devices” (priority 2015, dated 2017)

Test: thermal desorption of compounds off silicone wristbands compared to a standard injection
Settings: 200° C., 50 mL/min nitrogen

| Compound | percent of compound desorbed off wristband surface relative to standard injection (100%) |
| --- | --- |
| c1ccc2ccccc2c1 [Naphthalene] | 104% |
| CC(C)c1ccccc1 [Benzene, (1-methylethyl)-] | 78% |
| CCCc1ccccc1 [Benzene, propyl-] | 113% |
| Cc1ccc(Cl)cc1 [Benzene, 1-chloro-4-methyl-] | 90% |
| Cc1ccccc1Cl [Benzene, 1-chloro-2-methyl-] | 91% |
| Clc1ccccc1 [Benzene, chloro-] | 70% |
| Cc1ccccc1C [o xylene] | 73% |
| Brc1ccccc1 [Benzene, bromo-] | 91% |
| CCCCc1ccccc1 [Benzene, butyl-] | 98% |
| m and p-Xylene | 74% |
| Clc1cccc(Cl)c1Cl [Benzene, 1,2,3-trichloro-] | 88% |
| Clc1ccc(Cl)c(Cl)c1 [Benzene, 1,2,4-trichloro-] | 188% |
| Clc1cccc(Cl)c1 [Benzene, 1,3-dichloro] | 94% |
| CCC(C)c1ccccc1 (stereo not drawn) [Benzene, (1-methylpropyl)-] | 88% |
| C=Cc1ccccc1 [Styrene] | 75% |
| CCc1ccccc1 [Ethylbenzene] | 74% |
| Clc1ccccc1Cl [Benzene, 1,2-dichloro-] | 90% |
| Cc1ccc(C)c(C)c1 [Benzene, 1,2,4-trimethyl-] | 94% |
| Clc1ccc(Cl)cc1 [Benzene, 1,4-dichloro-] | 94% |
| Cc1cccc(C(C)C)c1 [Benzene, 1-methyl-3-(1-methylethyl)-] | 92% |
| c1ccccc1 [Benzene] | 24% |
